{
  "source": "patent US20060276624",
  "about": "(published 2006)",
  "assay": "general procedure: hybrid (solid and solution phase) peptide synthesis; 2-CTC resin; TBTU / 6-chloro HOBT / DIEA (solution phase coupling)",
  "note": "Where two headings read alike, the source gives them in different places. Plain letter strings leave the end groups untold.",
  "data": [
    {"sequence": "EKNEQELLELDKWASLWNWF", "values": [
      {"measurement": "step yield", "value": 101, "unit": "%"},
      {"measurement": "step yield", "setting": "both steps", "value": 98.9, "unit": "%"},
      {"measurement": "final HPLC purity", "setting": "coupling step, AN HPLC", "value": 80.0, "unit": "%"}
    ]}
  ]
}
